The test concerns the target T1, STAM-binding protein (STAMBP) (human (endogenous in MDA-MB-231 and BT549)) (UniProt O95630).
T1 sequence: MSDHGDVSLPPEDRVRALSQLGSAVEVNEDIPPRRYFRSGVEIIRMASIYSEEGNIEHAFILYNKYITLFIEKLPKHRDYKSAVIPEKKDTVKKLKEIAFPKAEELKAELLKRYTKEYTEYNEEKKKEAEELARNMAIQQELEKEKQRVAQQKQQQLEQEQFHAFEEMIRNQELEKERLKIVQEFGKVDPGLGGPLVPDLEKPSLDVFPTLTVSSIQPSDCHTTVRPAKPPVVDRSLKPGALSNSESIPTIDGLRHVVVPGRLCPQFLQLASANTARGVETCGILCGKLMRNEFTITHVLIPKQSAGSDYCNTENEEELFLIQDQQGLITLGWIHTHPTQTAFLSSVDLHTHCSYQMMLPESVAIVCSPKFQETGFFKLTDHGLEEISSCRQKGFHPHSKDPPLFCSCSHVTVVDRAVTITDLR
As to the kind of experiment: affinity purification with mass spectrometry; MDA-MB-231 cell lysates incubated with beads conjugated with anti-STAMBP antibodies; immunoprecipitates analyzed by mass spectrometry.

These are yes or no findings as the source states them, for the method shown. In cells and extracts the contact can be indirect. A yes stands for co-enrichment or nearness to the bait. Other partners may have been found. Where a sequence is shown, tags or fusion partners need not be part of it.

B1: retinoic acid-induced 14 (RAI14) (protein, UniProt Q9P0K7 1-980)
chain: MKSLKAKFRKSDTNEWNKNDDRLLQAVENGDAEKVASLLGKKGASATKHDSEGKTAFHLAAAKGHVECLRVMITHGVDVTAQDTTGHSALHLAAKNSHHECIRKLLQSKCPAESVDSSGKTALHYAAAQGCLQAVQILCEHKSPINLKDLDGNIPLLLAVQNGHSEICHFLLDHGADVNSRNKSGRTALMLACEIGSSNAVEALIKKGADLNLVDSLGYNALHYSKLSENAGIQSLLLSKISQDADLKTPTKPKQHDQVSKISSERSGTPKKRKAPPPPISPTQLSDVSSPRSITSTPLSGKESVFFAEPPFKAEISSIRENKDRLSDSTTGADSLLDISSEADQQDLLSLLQAKVASLTLHNKELQDKLQAKSPKEAEADLSFDSYHSTQTDLGPSLGKPGETSPPDSKSSPSVLIHSLGKSTTDNDVRIQQLQEILQDLQKRLESSEAERKQLQVELQSRRAELVCLNNTEISENSSDLSQKLKETQSKYEEAMKEVLSVQKQMKLGLVSPESMDNYSHFHELRVTEEEINVLKQDLQNALEESERNKEKVRELEEKLVEREKGTVIKPPVEEYEEMKSSYCSVIENMNKEKAFLFEKYQEAQEEIMKLKDTLKSQMTQEASDEAEDMKEAMNRMIDELNKQVSELSQLYKEAQAELEDYRKRKSLEDVTAEYIHKAEHEKLMQLTNVSRAKAEDALSEMKSQYSKVLNELTQLKQLVDAQKENSVSITEHLQVITTLRTAAKEMEEKISNLKEHLASKEVEVAKLEKQLLEEKAAMTDAMVPRSSYEKLQSSLESEVSVLASKLKESVKEKEKVHSEVVQIRSEVSQVKREKENIQTLLKSKEQEVNELLQKFQQAQEELAEMKRYAESSSKLEEDKDKKINEMSKEVTKLKEALNSLSQLSYSTSSSKRQSQQLEALQQQVKQLQNQLAECKKQHQEVISVYRMHLLYAVQGQMDEDVQKVLKQILTMCKNQSQKK
For the molecule B1, the binding entry is “binds”.

B2: RBM14 (protein, UniProt Q96PK6 1-669)
chain: MKIFVGNVDGADTTPEELAALFAPYGTVMSCAVMKQFAFVHMRENAGALRAIEALHGHELRPGRALVVEMSRPRPLNTWKIFVGNVSAACTSQELRSLFERRGRVIECDVVKDYAFVHMEKEADAKAAIAQLNGKEVKGKRINVELSTKGQKKGPGLAVQSGDKTKKPGAGDTAFPGTGGFSATFDYQQAFGNSTGGFDGQARQPTPPFFGRDRSPLRRSPPRASYVAPLTAQPATYRAQPSVSLGAAYRAQPSASLGVGYRTQPMTAQAASYRAQPSVSLGAPYRGQLASPSSQSAAASSLGPYGGAQPSASALSSYGGQAAAASSLNSYGAQGSSLASYGNQPSSYGAQAASSYGVRAAASSYNTQGAASSLGSYGAQAASYGAQSAASSLAYGAQAASYNAQPSASYNAQSAPYAAQQAASYSSQPAAYVAQPATAAAYASQPAAYAAQATTPMAGSYGAQPVVQTQLNSYGAQASMGLSGSYGAQSAAAATGSYGAAAAYGAQPSATLAAPYRTQSSASLAASYAAQQHPQAAASYRGQPGNAYDGAGQPSAAYLSMSQGAVANANSTPPPYERTRLSPPRASYDDPYKKAVAMSKRYGSDRRLAELSDYRRLSESQLSFRRSPTKSSLDYRRLPDAHSDYARYSGSYNDYLRAAQMHSGYQRRM
B2: the binding result is given as “binds”.
